## Drug screen on melanoma cell lines: apoptosis marker

From a melanoma drug combination screen (doi:10.1371/journal.pone.0140310); values rounded.

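The test systems are human melanoma cell lines, treated with two drugs together for 72 h and then stained and imaged. Each value is the cleaved-PARP-positive fraction of nuclei relative to DMSO-treated wells, in %, so that 100 equals the control and higher values mean more apoptosis. Concentrations were fixed for each drug; these are the higher of two levels. No replicate spread is given; individual values may be noisy. The marker varies much from line to line, for technical or biological reasons.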 An unselected part of the screen is shown. An entry leaves out what has no value listed here. A dash means that no value is listed here.

All values are for the listed drug together with Src-I1 (10 µM): COc1cc2ncnc(Nc3ccc(Oc4ccccc4)cc3)c2cc1OC

Second drug,A101D,RPMI-7951,IST-MEL1,WM3526,UACC-257,COLO 792,LB2518-MEL,G-361,LOX IMVI,MZ2-MEL,WM451Lu,SK-MEL-30,A2058,MeWo,COLO 800,WM1745
c1cc(-c2cnn3cc(-c4ccc(OCCN5CCCCC5)cc4)cnc23)ccn1 at 2 µM,81.9,171,72.4,154,83.3,105,101,233,133,36.1,65.6,80.3,110,176,86.9,170
C[C@@H](Oc1cc(-c2cnn(C3CCNCC3)c2)cnc1N)c1c(Cl)ccc(F)c1Cl at 1 µM,49.8,73.0,183,341,77.6,147,84.8,44.7,113,102,190,132,114,41.1,163,-
CC(C)(C)c1cnc(CSc2cnc(NC(=O)C3CCNCC3)s2)o1 at 0.05 µM,132,276,73.3,165,28.8,143,-,160,40.3,-,212,86.5,140,262,82.0,177
O=c1cc(-c2cccc3c2Sc2ccccc2S3)oc(N2CCOCC2)c1 at 5 µM,135,127,68.1,320,59.2,72.5,243,537,227,50.6,222,52.5,72.2,62.3,214,128
OCCn1cc(-c2cnc3nnn(Cc4ccc5ncccc5c4)c3n2)cn1 at 5 µM,123,258,67.4,171,50.4,174,54.3,124,83.2,96.2,157,76.5,128,30.4,42.9,142
COc1cc([C@@H]2c3cc4c(cc3[C@@H](O[C@@H]3O[C@@H]5CO[C@@H](C)O[C@H]5[C@H](O)[C@H]3O)[C@H]3COC(=O)[C@H]23)OCO4)cc(OC)c1O at 0.1 µM,94.4,223,52.1,153,-,173,76.4,333,121,120,242,102,166,52.4,304,-
CO[C@@H]1[C@H](N(C)C(=O)c2ccccc2)C[C@H]2O[C@]1(C)n1c3ccccc3c3c4c(c5c6ccccc6n2c5c31)C(=O)NC4 at 0.4 µM,182,285,105,338,324,143,199,123,45.4,252,88.6,120,157,82.0,87.0,447
CN1CCN(c2ccc3nc(-c4c(N)c5c(F)cccc5[nH]c4=O)[nH]c3c2)CC1 at 0.5 µM,551,477,520,298,81.0,124,123,1020,176,198,105,180,329,50.7,53.9,-
O=c1[nH]nc(Sc2ncc([N+](=O)[O-])s2)n1-c1ccc2c(c1)OCCO2 at 1 µM,197,441,155,251,103,140,42.5,177,446,49.7,106,101,109,120,54.9,-
C=CCNC1=C2C[C@@H](C)C[C@H](OC)[C@H](O)[C@@H](C)/C=C(\C)[C@H](OC(N)=O)[C@@H](OC)/C=C\C=C(/C)C(=O)NC(=CC1=O)C2=O at 0.01 µM,85.9,1180,163,210,63.3,146,222,259,92.5,104,647,126,184,1950,113,-
COCC[n+]1c2c(n(Cc3cnccn3)c1C)C(=O)c1ccccc1C2=O at 0.002 µM,145,362,296,1170,1200,81.1,505,95.1,130,620,569,97.6,881,968,425,145
CN(c1ncccc1CNc1nc(Nc2ccc3c(c2)CC(=O)N3)ncc1C(F)(F)F)S(C)(=O)=O at 0.4 µM,75.4,572,102,100,127,234,106,37.5,195,276,286,60.1,196,53.8,183,-
C[C@]1(O)C[C@@H](c2nc(-c3ccc4ccc(-c5ccccc5)nc4c3)c3c(N)nccn32)C1 at 2 µM,228,621,346,344,38.4,66.2,72.4,504,74.8,201,160,148,56.9,78.0,105,-
Cn1cc(/C=C2\C(=O)Nc3cccnc32)c2ccccc21 at 2 µM,159,128,163,253,95.3,152,59.4,290,137,79.1,92.4,118,115,81.7,71.6,237
CC1(C)NC(=O)N(c2ccc([N+](=O)[O-])c(C(F)(F)F)c2)C1=O at 5 µM,36.9,64.9,63.6,119,45.8,132,69.2,184,143,79.1,46.4,63.9,106,55.8,141,136
COc1cc2c(Oc3ccc4[nH]c(C)cc4c3F)ncnc2cc1OCCCN1CCCC1 at 2 µM,120,306,34.2,114,14.7,108,68.9,507,45.0,30.5,126,149,62.3,99.7,59.9,209
Cc1cc([N+](=O)[O-])ccc1NS(=O)(=O)c1cc(Cl)ccc1Cl at 5 µM,94.0,117,115,637,618,362,30.2,940,224,218,66.1,40.6,78.2,74.0,162,382
CCCCCCCCCCCC1=C(O)C(=O)C=C(O)C1=O at 6 µM,96.6,139,108,57.6,62.6,221,73.8,89.9,60.6,11.4,25.3,95.5,107,49.5,119,153
Oc1nc(-c2ccc(C(F)(F)F)cc2)nc2c1CSCC2 at 10 µM,60.5,228,98.2,132,103,280,47.3,236,100,43.9,91.1,24.0,163,26.1,85.2,230
Cc1cc(SCc2sc(-c3ccc(C(F)(F)F)c(F)c3)nc2C)ccc1OCC(=O)O at 10 µM,73.3,89.7,68.2,191,67.1,94.8,-,133,145,-,126,73.2,80.9,164,88.4,136
N#CC[C@H](C1CCCC1)n1cc(-c2ncnc3[nH]ccc23)cn1 at 5 µM,137,103,255,171,106,86.8,95.5,293,157,73.1,211,194,105,75.0,204,-
CC(=O)c1c(C)c2cnc(Nc3ccc(N4CCNCC4)cn3)nc2n(C2CCCC2)c1=O at 0.2 µM,125,87.7,95.8,121,27.0,193,392,302,113,55.4,179,93.8,199,166,45.4,-
Cc1nc(Nc2ncc(C(=O)Nc3c(C)cccc3Cl)s2)cc(N2CCN(CCO)CC2)n1 at 0.02 µM,196,410,104,59.9,109,238,25.0,409,418,291,88.1,164,132,135,86.6,393
CNC(=O)c1cc(Oc2ccc(NC(=O)Nc3ccc(Cl)c(C(F)(F)F)c3)cc2)ccn1 at 2 µM,201,488,84.8,163,107,99.4,65.0,97.2,220,87.7,65.7,61.9,53.0,98.9,55.1,-
CS(=O)(=O)CCNCc1ccc(-c2ccc3ncnc(Nc4ccc(OCc5cccc(F)c5)c(Cl)c4)c3c2)o1 at 4 µM,672,1270,143,198,38.0,179,274,1270,127,178,605,153,159,86.9,164,-
COc1cc(Nc2ncc(F)c(Nc3ccc4c(n3)NC(=O)C(C)(C)O4)n2)cc(OC)c1OC at 2 µM,217,347,34.8,176,91.1,151,151,208,168,77.1,93.1,103,144,121,42.6,374
COc1ccc(-c2ccc3c(N4CCOCC4)nc(N4C[C@@H](C)O[C@@H](C)C4)nc3n2)cc1CO at 0.1 µM,180,165,145,331,138,210,77.8,240,159,177,58.8,63.9,112,81.0,132,184
C#Cc1cccc(Nc2ncnc3cc(OCCOC)c(OCCOC)cc23)c1 at 4 µM,125,473,65.6,534,92.9,178,91.6,65.9,185,43.2,86.2,79.5,177,112,30.8,231
Cc1ccc(NC(=O)c2cccc(N(C)C)c2)cc1NC(=O)c1ccc(O)cc1 at 10 µM,423,293,72.5,265,156,302,63.2,198,113,87.3,107,37.8,92.1,256,74.1,232
O=C(O)c1ccc2c(c1)nc(Nc1cccc(Cl)c1)c1ccncc12 at 2 µM,240,174,198,621,64.5,170,49.9,700,279,272,217,197,166,378,40.1,-
C[C@]12O[C@H](C[C@]1(O)CO)n1c3ccccc3c3c4c(c5c6ccccc6n2c5c31)CNC4=O at 0.02 µM,157,230,101,395,37.5,355,72.1,406,184,53.0,161,81.3,144,203,57.6,-
O=C(/C=C/c1cccnc1)NCCCCC1CCN(C(=O)c2ccccc2)CC1 at 0.05 µM,233,515,221,275,57.4,633,892,7050,65.4,1280,318,130,135,79.8,208,-
O=C(Nc1ccccc1)c1cc([N+](=O)[O-])ccc1Cl at 10 µM,59.3,433,136,283,17.4,130,57.7,184,89.5,59.6,548,133,87.0,156,81.6,196
Clc1ccc(Nc2nnc(Cc3ccncc3)c3ccccc23)cc1 at 10 µM,82.9,400,91.9,240,58.0,323,50.9,230,55.9,253,111,77.7,128,63.0,113,-
C[As](C)SC[C@H](NC(=O)CC[C@H](N)C(=O)O)C(=O)NCC(=O)O at 2 µM,79.0,314,71.2,255,60.2,155,50.5,137,90.1,49.2,127,67.2,116,161,87.0,125
C[C@]1(c2nc3c(C(N)=O)cccc3[nH]2)CCCN1 at 7 µM,46.6,243,315,137,71.5,71.8,44.3,146,48.9,152,41.1,94.0,83.9,132,207,117
CCCS(=O)(=O)Nc1ccc(F)c(C(=O)c2c[nH]c3ncc(Cl)cc23)c1F at 0.4 µM,538,96.9,265,220,68.0,65.3,158,369,85.6,126,191,162,98.3,100,61.3,-

Once more, the final 2:

{"second drug": "C[C@]1(c2nc3c(C(N)=O)cccc3[nH]2)CCCN1 at 7 µM", "A101D": 46.6, "RPMI-7951": 243, "IST-MEL1": 315, "WM3526": 137, "UACC-257": 71.5, "COLO 792": 71.8, "LB2518-MEL": 44.3, "G-361": 146, "LOX IMVI": 48.9, "MZ2-MEL": 152, "WM451Lu": 41.1, "SK-MEL-30": 94.0, "A2058": 83.9, "MeWo": 132, "COLO 800": 207, "WM1745": 117}
{"second drug": "CCCS(=O)(=O)Nc1ccc(F)c(C(=O)c2c[nH]c3ncc(Cl)cc23)c1F at 0.4 µM", "A101D": 538, "RPMI-7951": 96.9, "IST-MEL1": 265, "WM3526": 220, "UACC-257": 68.0, "COLO 792": 65.3, "LB2518-MEL": 158, "G-361": 369, "LOX IMVI": 85.6, "MZ2-MEL": 126, "WM451Lu": 191, "SK-MEL-30": 162, "A2058": 98.3, "MeWo": 100, "COLO 800": 61.3}